# Measured values: the supplement of paper PMC12819154, “High-throughput peptide-centric local stability assay extends protein–ligand identification to membrane proteins, tissues and bacteria” (Nature Structural & Molecular Biology, 2025)
# Sequences of proteins named here, by UniProt entry; tags and fusion partners are left off. A change or cut given only in a name is not applied to a line headed by its entry.
# UniProt P0ABF6: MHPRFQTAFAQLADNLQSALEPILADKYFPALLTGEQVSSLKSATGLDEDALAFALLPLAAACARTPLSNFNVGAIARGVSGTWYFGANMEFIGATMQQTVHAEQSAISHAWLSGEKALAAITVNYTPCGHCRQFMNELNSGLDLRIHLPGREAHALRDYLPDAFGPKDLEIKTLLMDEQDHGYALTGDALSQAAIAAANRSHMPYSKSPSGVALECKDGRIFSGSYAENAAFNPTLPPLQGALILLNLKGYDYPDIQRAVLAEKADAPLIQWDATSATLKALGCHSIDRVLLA
# UniProt P0ABL3: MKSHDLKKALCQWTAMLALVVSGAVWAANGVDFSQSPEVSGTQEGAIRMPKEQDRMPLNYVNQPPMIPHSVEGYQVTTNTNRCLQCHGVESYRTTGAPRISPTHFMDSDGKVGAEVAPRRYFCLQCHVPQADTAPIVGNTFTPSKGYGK
# UniProt P0ABR5: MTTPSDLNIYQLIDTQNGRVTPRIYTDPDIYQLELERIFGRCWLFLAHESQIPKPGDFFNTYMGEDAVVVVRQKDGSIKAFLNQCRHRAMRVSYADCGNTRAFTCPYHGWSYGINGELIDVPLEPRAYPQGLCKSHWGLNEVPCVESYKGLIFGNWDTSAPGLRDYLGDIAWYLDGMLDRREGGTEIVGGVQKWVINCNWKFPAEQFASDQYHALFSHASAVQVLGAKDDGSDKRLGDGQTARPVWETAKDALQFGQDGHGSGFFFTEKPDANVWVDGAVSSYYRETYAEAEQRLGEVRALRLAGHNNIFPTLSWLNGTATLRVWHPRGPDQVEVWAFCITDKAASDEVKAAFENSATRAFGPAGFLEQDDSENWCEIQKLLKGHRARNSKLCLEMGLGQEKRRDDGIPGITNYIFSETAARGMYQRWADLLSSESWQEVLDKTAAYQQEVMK
# UniProt P0ABU5: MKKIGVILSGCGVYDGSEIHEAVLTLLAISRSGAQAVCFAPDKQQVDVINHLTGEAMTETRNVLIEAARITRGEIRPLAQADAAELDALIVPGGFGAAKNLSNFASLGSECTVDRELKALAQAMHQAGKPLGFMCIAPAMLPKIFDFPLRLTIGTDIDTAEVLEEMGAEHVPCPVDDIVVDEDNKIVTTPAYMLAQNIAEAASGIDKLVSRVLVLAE
# UniProt P0ABZ4: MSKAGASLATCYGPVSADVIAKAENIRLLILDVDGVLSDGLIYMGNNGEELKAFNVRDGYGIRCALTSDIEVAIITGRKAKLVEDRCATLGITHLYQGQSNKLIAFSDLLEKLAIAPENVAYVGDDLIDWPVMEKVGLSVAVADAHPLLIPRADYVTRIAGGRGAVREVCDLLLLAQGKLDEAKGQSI
# UniProt P0AC51: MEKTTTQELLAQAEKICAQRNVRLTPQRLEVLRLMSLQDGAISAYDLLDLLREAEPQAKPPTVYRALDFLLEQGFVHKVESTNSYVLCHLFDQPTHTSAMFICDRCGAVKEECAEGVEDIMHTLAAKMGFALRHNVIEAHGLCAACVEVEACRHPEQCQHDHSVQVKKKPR
# UniProt P0ACK2: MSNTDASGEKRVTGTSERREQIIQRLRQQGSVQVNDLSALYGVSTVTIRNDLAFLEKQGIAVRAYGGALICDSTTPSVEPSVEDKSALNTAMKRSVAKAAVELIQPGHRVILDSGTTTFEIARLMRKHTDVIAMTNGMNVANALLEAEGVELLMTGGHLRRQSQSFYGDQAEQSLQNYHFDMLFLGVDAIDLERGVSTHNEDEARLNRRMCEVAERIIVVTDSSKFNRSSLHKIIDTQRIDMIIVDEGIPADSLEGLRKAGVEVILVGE
# UniProt P0ACK8: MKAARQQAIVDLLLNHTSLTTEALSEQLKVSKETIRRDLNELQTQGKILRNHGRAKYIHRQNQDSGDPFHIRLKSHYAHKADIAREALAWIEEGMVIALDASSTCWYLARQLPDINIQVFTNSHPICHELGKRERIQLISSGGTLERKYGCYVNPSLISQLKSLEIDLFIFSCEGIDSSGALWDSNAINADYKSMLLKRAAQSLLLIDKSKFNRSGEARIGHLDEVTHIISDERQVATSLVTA
# UniProt P0ACL7: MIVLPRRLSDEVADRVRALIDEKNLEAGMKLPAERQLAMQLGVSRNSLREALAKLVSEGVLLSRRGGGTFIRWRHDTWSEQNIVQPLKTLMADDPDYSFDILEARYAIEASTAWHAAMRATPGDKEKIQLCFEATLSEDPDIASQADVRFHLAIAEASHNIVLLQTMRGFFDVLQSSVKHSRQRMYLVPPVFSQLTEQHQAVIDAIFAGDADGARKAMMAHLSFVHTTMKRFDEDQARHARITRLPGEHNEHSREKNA
# UniProt P0ACM2: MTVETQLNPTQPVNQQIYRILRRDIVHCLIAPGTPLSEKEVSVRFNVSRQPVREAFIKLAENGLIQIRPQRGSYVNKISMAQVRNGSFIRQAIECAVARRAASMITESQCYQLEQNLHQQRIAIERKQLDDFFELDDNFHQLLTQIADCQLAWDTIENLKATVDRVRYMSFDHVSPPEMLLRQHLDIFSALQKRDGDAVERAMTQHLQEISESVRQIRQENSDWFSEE
# UniProt P0ACR7: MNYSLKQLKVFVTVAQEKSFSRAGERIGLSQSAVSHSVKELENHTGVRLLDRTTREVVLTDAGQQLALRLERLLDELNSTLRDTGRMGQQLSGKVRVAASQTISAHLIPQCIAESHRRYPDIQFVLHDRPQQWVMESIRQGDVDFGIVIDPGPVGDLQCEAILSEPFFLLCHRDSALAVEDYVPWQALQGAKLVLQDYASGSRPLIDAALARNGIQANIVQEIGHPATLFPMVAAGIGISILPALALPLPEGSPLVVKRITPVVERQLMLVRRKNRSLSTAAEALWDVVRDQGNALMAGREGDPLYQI
# UniProt P0ACU5: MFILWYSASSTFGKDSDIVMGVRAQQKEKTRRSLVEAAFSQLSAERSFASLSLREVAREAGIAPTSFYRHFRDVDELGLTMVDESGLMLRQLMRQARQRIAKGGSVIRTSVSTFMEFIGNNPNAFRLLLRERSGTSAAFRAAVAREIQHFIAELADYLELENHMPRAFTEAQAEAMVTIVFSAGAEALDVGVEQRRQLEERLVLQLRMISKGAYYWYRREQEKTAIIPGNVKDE
# UniProt P0ACV2: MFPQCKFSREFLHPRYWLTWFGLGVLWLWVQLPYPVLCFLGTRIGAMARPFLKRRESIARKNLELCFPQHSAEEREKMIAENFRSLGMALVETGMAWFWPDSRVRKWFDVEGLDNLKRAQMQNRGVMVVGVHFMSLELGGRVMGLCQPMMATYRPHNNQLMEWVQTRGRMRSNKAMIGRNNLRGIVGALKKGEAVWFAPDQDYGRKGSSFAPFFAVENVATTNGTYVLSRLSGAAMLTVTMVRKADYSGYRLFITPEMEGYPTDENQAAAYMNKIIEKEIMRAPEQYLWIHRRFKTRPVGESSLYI
# UniProt P0ACV4: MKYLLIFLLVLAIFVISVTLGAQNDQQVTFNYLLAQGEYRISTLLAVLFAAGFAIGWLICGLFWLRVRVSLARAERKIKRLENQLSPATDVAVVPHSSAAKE
# UniProt P0AD42: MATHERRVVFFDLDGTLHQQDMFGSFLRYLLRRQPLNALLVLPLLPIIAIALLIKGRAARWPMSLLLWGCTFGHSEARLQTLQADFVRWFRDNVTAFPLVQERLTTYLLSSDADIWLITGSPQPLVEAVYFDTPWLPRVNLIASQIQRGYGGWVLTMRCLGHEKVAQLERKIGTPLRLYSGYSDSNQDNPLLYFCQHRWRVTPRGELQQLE
# UniProt P0AD44: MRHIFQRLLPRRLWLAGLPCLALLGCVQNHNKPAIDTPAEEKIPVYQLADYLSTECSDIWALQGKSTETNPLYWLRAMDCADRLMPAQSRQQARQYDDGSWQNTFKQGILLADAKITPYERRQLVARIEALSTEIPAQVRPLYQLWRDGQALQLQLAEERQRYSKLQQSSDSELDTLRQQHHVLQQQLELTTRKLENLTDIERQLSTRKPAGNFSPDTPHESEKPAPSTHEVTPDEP
# UniProt P0ADJ3: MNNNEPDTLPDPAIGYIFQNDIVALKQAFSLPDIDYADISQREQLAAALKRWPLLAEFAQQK
# UniProt P0ADX7: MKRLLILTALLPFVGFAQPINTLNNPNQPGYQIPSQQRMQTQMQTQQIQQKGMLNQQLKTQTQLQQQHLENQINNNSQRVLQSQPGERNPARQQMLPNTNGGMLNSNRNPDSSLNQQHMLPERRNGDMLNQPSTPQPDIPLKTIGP
# UniProt P0AE28: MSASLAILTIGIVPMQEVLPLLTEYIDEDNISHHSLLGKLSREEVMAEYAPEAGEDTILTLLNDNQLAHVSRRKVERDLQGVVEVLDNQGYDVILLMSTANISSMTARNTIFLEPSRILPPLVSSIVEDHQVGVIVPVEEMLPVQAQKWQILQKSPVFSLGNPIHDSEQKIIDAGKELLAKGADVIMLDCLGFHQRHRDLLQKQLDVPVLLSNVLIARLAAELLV
# UniProt P0AE58: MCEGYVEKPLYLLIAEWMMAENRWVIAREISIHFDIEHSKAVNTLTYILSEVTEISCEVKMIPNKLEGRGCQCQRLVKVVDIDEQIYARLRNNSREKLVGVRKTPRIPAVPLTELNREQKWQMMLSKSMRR
# UniProt P0AED5: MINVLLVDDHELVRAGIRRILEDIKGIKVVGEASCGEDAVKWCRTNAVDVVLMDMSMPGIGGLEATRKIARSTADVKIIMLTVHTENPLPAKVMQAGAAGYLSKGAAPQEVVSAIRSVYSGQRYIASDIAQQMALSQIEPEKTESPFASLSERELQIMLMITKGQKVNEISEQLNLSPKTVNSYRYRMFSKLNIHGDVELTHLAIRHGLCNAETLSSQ
# UniProt P0AEG4: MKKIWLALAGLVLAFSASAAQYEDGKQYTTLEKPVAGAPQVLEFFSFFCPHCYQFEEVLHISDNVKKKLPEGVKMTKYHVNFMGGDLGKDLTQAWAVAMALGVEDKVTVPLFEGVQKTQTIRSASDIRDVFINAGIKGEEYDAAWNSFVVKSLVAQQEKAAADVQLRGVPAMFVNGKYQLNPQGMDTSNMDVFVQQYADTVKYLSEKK
# UniProt P0AEM4: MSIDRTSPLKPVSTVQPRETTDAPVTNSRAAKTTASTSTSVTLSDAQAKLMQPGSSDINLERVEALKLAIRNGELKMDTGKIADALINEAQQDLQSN
# This is a selection; strong and weak results do not stand in their true shares. Small differences around the control level are noise.
# Columns and labels:
# Test in all cases: log2 fold change of tryptic peptide abundance, ligand vs vehicle (limited proteolysis) (log2 ratio); higher = more trypsin-susceptible (destabilized)
# [1] = biological target: UniProt P0ABF6; details: peptide sequence: SPSGVALECK; peptide start residue: 209; ligand concentration: 5 mM; sample: E. coli desalted lysate; replicate design: treated before aliquoting
# Experimental: (§1)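 HT-PELSA: desalted E. coli K-12 BW25113 lysate (with 12 mM MgCl2) incubated with 5 mM ATP (pH 7) or water for 30 min at 25 C, then a 4 min trypsin pulse at 22 C. Peptides were quantified by DIA-MS (4 replicates). Value is the peptide log2 fold change (treated/control); negative = stabilized. Scale: negative = ligand-stabilized region.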
# [2] = biological target: UniProt P0ABL3; details: peptide sequence: ISPTHFMDSDGK; peptide start residue: 100; ligand concentration: 5 mM; sample: E. coli desalted lysate; replicate design: treated before aliquoting
# Experimental: as §1
# [3] = biological target: UniProt P0ABR5; details: peptide sequence: VSYADCGNTR; peptide start residue: 92; ligand concentration: 5 mM; sample: E. coli desalted lysate; replicate design: treated before aliquoting
# Experimental: as §1
# [4] = biological target: UniProt P0ABU5; details: peptide sequence: IFDFPLR; peptide start residue: 144; ligand concentration: 5 mM; sample: E. coli desalted lysate; replicate design: treated before aliquoting
# Experimental: as §1
# [5] = biological target: UniProt P0ABZ4; details: peptide sequence: EVCDLLLLAQGK; peptide start residue: 168; ligand concentration: 5 mM; sample: E. coli desalted lysate; replicate design: treated before aliquoting
# Experimental: as §1
# [6] = biological target: UniProt P0AC51; details: peptide sequence: EAEPQAKPPTVYR; peptide start residue: 53; ligand concentration: 5 mM; sample: E. coli desalted lysate; replicate design: treated before aliquoting
# Experimental: as §1
# [7] = biological target: UniProt P0ACD8; details: peptide sequence: WRGNAMEVGPLAR; peptide start residue: 403; ligand concentration: 5 mM; sample: E. coli desalted lysate; replicate design: treated before aliquoting
# Experimental: as §1
# [8] = biological target: UniProt P0ACK2; details: peptide sequence: MCEVAER; peptide start residue: 210; ligand concentration: 5 mM; sample: E. coli desalted lysate; replicate design: treated before aliquoting
# Experimental: as §1
# [9] = biological target: UniProt P0ACK8; details: peptide sequence: KYGCYVNPSLISQLK; peptide start residue: 148; ligand concentration: 5 mM; sample: E. coli desalted lysate; replicate design: treated before aliquoting
# Experimental: as §1
# [10] = biological target: UniProt P0ACL7; details: peptide sequence: RLSDEVADR; peptide start residue: 7; ligand concentration: 5 mM; sample: E. coli desalted lysate; replicate design: treated before aliquoting
# Experimental: as §1
# [11] = biological target: UniProt P0ACM2; details: peptide sequence: RDIVHCLIAPGTPLSEKEVSVR; peptide start residue: 23; ligand concentration: 5 mM; sample: E. coli desalted lysate; replicate design: treated before aliquoting
# Experimental: as §1
# [12] = biological target: UniProt P0ACR7; details: peptide sequence: VFVTVAQEK; peptide start residue: 10; ligand concentration: 5 mM; sample: E. coli desalted lysate; replicate design: treated before aliquoting
# Experimental: as §1
# [13] = biological target: UniProt P0ACU5; details: peptide sequence: SFASLSLR; peptide start residue: 47; ligand concentration: 5 mM; sample: E. coli desalted lysate; replicate design: treated before aliquoting
# Experimental: as §1
# [14] = biological target: UniProt P0ACV2; details: peptide sequence: IGAMARPFLK; peptide start residue: 44; ligand concentration: 5 mM; sample: E. coli desalted lysate; replicate design: treated before aliquoting
# Experimental: as §1
# [15] = biological target: UniProt P0ACV4; details: peptide sequence: RLENQLSPATDVAVVPHSSAAKE; peptide start residue: 80; ligand concentration: 5 mM; sample: E. coli desalted lysate; replicate design: treated before aliquoting
# Experimental: as §1
# [16] = biological target: UniProt P0AD42; details: peptide sequence: VNLIASQIQR; peptide start residue: 139; ligand concentration: 5 mM; sample: E. coli desalted lysate; replicate design: treated before aliquoting
# Experimental: as §1
# [17] = biological target: UniProt P0AD44; details: peptide sequence: QQHHVLQQQLELTTR; peptide start residue: 179; ligand concentration: 5 mM; sample: E. coli desalted lysate; replicate design: treated before aliquoting
# Experimental: as §1
# [18] = biological target: UniProt P0ADJ3; details: peptide sequence: EQLAAALKR; peptide start residue: 43; ligand concentration: 5 mM; sample: E. coli desalted lysate; replicate design: treated before aliquoting
# Experimental: as §1
# [19] = biological target: UniProt P0ADX7; details: peptide sequence: VLQSQPGERNPAR; peptide start residue: 80; ligand concentration: 5 mM; sample: E. coli desalted lysate; replicate design: treated before aliquoting
# Experimental: as §1
# [20] = biological target: UniProt P0AE28; details: peptide sequence: NTIFLEPSR; peptide start residue: 109; ligand concentration: 5 mM; sample: E. coli desalted lysate; replicate design: treated before aliquoting
# Experimental: as §1
# [21] = biological target: UniProt P0AE58; details: peptide sequence: IPAVPLTELNR; peptide start residue: 107; ligand concentration: 5 mM; sample: E. coli desalted lysate; replicate design: treated before aliquoting
# Experimental: as §1
# [22] = biological target: UniProt P0AED5; details: peptide sequence: VVGEASCGEDAVKWCR; peptide start residue: 29; ligand concentration: 5 mM; sample: E. coli desalted lysate; replicate design: treated before aliquoting
# Experimental: as §1
# [23] = biological target: UniProt P0AEG4; details: peptide sequence: SLVAQQEK; peptide start residue: 152; ligand concentration: 5 mM; sample: E. coli desalted lysate; replicate design: treated before aliquoting
# Experimental: as §1
# [24] = biological target: UniProt P0AEM4; details: peptide sequence: ETTDAPVTNSR; peptide start residue: 19; ligand concentration: 5 mM; sample: E. coli desalted lysate; replicate design: treated before aliquoting
# Experimental: as §1
# 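Note: lysate desalted by size exclusion to strip endogenous ATP, peptide intensities built from DIA-NN precursor signals, and peptides missing any value discarded before comparison.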
smiles,measurement,setting,value
Nc1ncnc2c1ncn2[C@@H]1O[C@H](COP(=O)(O)OP(=O)(O)OP(=O)(O)O)[C@@H](O)[C@H]1O [adenosine 5'-triphosphate],log2 fold change,[1],0.246
same,log2 fold change,[2],-0.157
same,log2 fold change,[3],-0.599
same,log2 fold change,[4],-0.08
same,log2 fold change,[5],0.391
same,log2 fold change,[6],-0.154
same,log2 fold change,[7],0.892
same,log2 fold change,[8],0.393
same,log2 fold change,[9],0.372
same,log2 fold change,[10],0.936
same,log2 fold change,[11],0.435
same,log2 fold change,[12],0.106
same,log2 fold change,[13],0.541
same,log2 fold change,[14],0.168
same,log2 fold change,[15],-0.463
same,log2 fold change,[16],-0.243
same,log2 fold change,[17],-0.271
same,log2 fold change,[18],-0.328
same,log2 fold change,[19],0.188
same,log2 fold change,[20],-0.0534
same,log2 fold change,[21],0.136
same,log2 fold change,[22],-0.297
same,log2 fold change,[23],-0.147
same,log2 fold change,[24],0.0633

# Reformatted bar-delimited: part of the list above.
smiles | measurement | setting | value
Nc1ncnc2c1ncn2[C@@H]1O[C@H](COP(=O)(O)OP(=O)(O)OP(=O)(O)O)[C@@H](O)[C@H]1O [adenosine 5'-triphosphate] | log2 fold change | [5] | 0.391
same | log2 fold change | [6] | -0.154
